PubChem BioAssay AID1508588 | Peter MacCallum Cancer Centre – 2020
Here is one part, drawn at random, of about 18,000 reagents tested. Of all reagents, 790 (4.4%) got an active call. 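Calls rest on a combination of fold-change classes in drug and vehicle arms, not all shown here.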

Purpose: 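Genome-wide search for knock-downs that heighten vemurafenib action in melanoma cells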 (primary screen)
Cells: human WM266.4 melanoma cells (BRAF V600 mutant)
Knock-down reagent: siRNA pool against human genes, 40 nM
Timing: 96 h from transfection to read-out
Challenge: vemurafenib 300 nM (about IC25), added 48 h after transfection, for 48 h; comparison arm got DMSO vehicle only
Detection: 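Cell gain (DAPI nuclei at end minus before drug, mean of two replicates) and medium lactate by absorbance per cell, both as ratio to non-targeting siRNA, also grouped into fold-change classes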
Direction: cell gain with vemurafenib: higher = more cell gain than with non-targeting siRNA; lactate per cell with vemurafenib: higher = more lactate made per cell
Hit rule: 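a knock-down counts as enhancing when its fold-change classes with vehicle and with vemurafenib, taken together, show a stronger drug effect on cell gain or lactate per cell; exact class pairs not stated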
Meaning of the calls: active = enhances vemurafenib effect; inactive = no enhancement seen

gene knocked down	cell gain with vemurafenib	lactate per cell with vemurafenib	activity call
KIF2A	0.63	1.2	inactive
LTBP2	0.1	2.12	inactive
KHDC1	0.65	1.23	inactive
KLHDC7A	1.02	1.02	inactive
PRRG3	0	0.53	inactive
SLC37A2	0.58	1.01	inactive
DNPEP	0.24	0.88	inactive
FAM234B	0.54	1.02	inactive
FAM151A	0.15	3.05	inactive
ST6GALNAC5	0.4	1.64	inactive
DNAH10	1.3	0.64	inactive
YTHDF3	0.61	0.63	inactive
MIEN1	0.4	0.96	inactive
TTC12	0.35	0.42	inactive
AGO4	0.47	0.4	inactive
PLEKHF1	0.46	0.79	inactive
FETUB	0.6	1.23	inactive
IQCJ	0.61	0.26	inactive
ZNF135	1.2	0.72	inactive
AMMECR1L	0.86	0.42	inactive
CEP68	-0.1	1.96	inactive
PARP2	0.79	1.25	inactive
FAAP20	0.21	1.15	inactive
EFS	0.51	1.96	inactive
NAV2	0.98	0.7	inactive
SLTM	1.11	0.57	inactive
KRTAP10-7	0.5	0.85	inactive
EIF3L	0.43	0.87	inactive
AHNAK	0.74	0.83	inactive
EMC10	0.65	1.33	inactive
PDPK1	0.17	0.29	active
NUS1	0.77	1.33	inactive
GULP1	0.82	0.9	inactive
PEX26	0.38	1.56	inactive
FADS2	0.67	0.62	inactive
FFAR1	0.91	0.57	inactive
H3C15	1.1	0.48	inactive
LRRC15	0.4	1.36	inactive
AP3D1	1.05	0.76	inactive
HCN2	0.46	1.7	inactive
NXT1	1.63	1.01	inactive
DSCC1	0.58	0.52	inactive
VPS50	0.77	0.85	inactive
VENTX	0.89	1.05	inactive
LHX6	0.73	1.38	inactive
RAVER1	1.04	1.27	inactive
PAX3	0.76	0.62	inactive
LOXL2	0.27	0.69	inactive
AGPAT2	0.73	0.77	inactive
ANAPC10	0.53	0.92	inactive
TYSND1	0.53	1.46	inactive
CD36	0.39	0.82	inactive
PPP1R15B	0.48	0.62	inactive
EMC8	0.5	1.27	inactive
DRD1	0.52	0.68	inactive
JRKL	1.11	1.03	inactive
PRAME	0.72	0.9	inactive

A stretch of the results above:
gene knocked down	cell gain with vemurafenib	lactate per cell with vemurafenib	activity call
LHX6	0.73	1.38	inactive
RAVER1	1.04	1.27	inactive
PAX3	0.76	0.62	inactive
